Our source for the log2 fold change values is the supplement of paper PMC12819154, “High-throughput peptide-centric local stability assay extends protein–ligand identification to membrane proteins, tissues and bacteria” (Nature Structural & Molecular Biology, 2025).

By UniProt entry, the sequences of proteins in these tests, tags left out. Where a name states a change or a piece, a line headed by the entry shows the natural chain unless it says otherwise.
UniProt P62140, whole entry: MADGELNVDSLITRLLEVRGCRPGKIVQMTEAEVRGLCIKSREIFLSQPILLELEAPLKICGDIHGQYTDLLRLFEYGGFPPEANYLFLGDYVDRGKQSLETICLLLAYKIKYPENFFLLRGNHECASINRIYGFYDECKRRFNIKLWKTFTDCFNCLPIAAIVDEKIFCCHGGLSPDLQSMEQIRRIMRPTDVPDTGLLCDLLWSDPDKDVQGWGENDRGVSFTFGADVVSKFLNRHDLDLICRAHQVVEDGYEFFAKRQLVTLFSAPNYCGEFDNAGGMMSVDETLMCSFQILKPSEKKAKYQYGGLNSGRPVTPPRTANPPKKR
UniProt P68363, whole entry: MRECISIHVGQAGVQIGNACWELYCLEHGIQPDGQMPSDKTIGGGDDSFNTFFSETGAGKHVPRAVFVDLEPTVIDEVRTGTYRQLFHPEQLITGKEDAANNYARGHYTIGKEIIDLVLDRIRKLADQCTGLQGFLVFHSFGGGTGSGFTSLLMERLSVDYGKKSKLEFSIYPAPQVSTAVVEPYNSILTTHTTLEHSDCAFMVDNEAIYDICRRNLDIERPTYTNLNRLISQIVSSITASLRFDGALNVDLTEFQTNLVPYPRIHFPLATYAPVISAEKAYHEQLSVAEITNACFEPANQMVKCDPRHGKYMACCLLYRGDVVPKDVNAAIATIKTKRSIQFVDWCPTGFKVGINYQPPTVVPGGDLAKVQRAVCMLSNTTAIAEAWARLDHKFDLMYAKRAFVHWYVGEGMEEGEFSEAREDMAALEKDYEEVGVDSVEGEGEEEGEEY
UniProt P61758, whole entry: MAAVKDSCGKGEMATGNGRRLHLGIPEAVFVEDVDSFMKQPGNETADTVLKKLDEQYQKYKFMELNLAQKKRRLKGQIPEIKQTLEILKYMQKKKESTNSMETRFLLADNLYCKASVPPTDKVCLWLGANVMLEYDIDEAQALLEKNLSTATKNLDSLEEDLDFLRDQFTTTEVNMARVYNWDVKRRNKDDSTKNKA
UniProt P81605: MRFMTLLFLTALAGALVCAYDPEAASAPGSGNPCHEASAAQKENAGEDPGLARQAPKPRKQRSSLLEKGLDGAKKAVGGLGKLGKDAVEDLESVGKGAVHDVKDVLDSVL
UniProt P80303: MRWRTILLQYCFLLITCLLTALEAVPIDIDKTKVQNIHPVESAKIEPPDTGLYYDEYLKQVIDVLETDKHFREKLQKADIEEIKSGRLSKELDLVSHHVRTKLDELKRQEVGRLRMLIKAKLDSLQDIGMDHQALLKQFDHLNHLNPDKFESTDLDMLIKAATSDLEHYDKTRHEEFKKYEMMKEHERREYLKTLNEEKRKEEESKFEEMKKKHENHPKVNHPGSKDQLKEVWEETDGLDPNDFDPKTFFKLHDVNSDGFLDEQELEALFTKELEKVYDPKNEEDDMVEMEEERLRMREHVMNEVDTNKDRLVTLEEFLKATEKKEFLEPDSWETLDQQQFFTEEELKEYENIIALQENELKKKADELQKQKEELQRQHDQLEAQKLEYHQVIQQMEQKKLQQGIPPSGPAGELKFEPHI
UniProt P78381: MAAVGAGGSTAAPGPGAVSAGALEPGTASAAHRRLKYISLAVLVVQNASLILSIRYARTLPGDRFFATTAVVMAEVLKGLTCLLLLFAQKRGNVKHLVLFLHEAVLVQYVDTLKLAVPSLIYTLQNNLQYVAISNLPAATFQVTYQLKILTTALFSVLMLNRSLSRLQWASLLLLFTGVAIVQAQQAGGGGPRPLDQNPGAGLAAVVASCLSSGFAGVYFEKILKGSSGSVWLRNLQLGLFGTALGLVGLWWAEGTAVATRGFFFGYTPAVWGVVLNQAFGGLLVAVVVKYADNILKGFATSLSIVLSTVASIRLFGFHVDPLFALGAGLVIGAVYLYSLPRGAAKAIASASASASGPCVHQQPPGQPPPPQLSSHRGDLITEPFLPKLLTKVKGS
UniProt P62310: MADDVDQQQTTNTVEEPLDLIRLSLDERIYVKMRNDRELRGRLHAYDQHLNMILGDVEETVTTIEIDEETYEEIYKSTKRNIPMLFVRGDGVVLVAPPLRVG
UniProt P61923: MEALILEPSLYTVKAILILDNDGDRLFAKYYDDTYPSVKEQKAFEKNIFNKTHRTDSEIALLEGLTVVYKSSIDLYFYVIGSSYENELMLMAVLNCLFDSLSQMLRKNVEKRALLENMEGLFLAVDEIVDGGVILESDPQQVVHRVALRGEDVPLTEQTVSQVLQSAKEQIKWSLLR
UniProt P62328: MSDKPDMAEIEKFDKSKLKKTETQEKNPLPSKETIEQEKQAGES
UniProt P63241: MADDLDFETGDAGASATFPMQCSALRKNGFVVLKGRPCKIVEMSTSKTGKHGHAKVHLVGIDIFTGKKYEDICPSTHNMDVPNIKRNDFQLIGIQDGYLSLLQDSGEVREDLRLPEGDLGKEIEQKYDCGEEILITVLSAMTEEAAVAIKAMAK
UniProt P67809, whole entry: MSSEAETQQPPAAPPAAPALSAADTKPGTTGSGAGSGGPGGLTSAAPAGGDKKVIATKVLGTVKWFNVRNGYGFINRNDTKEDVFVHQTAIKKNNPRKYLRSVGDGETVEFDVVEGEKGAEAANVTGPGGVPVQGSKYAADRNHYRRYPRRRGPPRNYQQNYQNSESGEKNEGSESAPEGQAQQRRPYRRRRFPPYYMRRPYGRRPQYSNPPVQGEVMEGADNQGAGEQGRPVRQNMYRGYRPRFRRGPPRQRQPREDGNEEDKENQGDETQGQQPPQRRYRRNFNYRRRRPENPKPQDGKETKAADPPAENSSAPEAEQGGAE
UniProt P63208, whole entry: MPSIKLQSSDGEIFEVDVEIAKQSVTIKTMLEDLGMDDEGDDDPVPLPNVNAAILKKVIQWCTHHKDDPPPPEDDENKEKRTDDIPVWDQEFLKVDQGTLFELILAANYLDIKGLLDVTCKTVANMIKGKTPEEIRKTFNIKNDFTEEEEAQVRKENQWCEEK
UniProt P61081: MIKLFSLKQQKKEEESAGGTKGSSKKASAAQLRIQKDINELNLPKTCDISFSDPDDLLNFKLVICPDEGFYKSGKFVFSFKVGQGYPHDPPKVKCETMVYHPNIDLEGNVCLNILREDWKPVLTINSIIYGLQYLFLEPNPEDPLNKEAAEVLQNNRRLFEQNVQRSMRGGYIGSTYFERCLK
UniProt P78318: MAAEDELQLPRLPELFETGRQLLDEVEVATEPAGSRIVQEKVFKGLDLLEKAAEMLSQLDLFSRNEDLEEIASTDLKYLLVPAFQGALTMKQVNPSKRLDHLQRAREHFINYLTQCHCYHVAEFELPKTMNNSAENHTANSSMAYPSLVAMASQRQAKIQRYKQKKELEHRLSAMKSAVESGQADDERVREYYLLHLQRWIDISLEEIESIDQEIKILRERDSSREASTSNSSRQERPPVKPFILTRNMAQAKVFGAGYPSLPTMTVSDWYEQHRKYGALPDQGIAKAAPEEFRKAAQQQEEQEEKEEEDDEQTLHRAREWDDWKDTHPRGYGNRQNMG
UniProt P63167, whole entry: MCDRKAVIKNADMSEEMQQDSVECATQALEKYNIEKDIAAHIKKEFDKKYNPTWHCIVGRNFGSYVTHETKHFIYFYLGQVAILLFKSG
UniProt P56524: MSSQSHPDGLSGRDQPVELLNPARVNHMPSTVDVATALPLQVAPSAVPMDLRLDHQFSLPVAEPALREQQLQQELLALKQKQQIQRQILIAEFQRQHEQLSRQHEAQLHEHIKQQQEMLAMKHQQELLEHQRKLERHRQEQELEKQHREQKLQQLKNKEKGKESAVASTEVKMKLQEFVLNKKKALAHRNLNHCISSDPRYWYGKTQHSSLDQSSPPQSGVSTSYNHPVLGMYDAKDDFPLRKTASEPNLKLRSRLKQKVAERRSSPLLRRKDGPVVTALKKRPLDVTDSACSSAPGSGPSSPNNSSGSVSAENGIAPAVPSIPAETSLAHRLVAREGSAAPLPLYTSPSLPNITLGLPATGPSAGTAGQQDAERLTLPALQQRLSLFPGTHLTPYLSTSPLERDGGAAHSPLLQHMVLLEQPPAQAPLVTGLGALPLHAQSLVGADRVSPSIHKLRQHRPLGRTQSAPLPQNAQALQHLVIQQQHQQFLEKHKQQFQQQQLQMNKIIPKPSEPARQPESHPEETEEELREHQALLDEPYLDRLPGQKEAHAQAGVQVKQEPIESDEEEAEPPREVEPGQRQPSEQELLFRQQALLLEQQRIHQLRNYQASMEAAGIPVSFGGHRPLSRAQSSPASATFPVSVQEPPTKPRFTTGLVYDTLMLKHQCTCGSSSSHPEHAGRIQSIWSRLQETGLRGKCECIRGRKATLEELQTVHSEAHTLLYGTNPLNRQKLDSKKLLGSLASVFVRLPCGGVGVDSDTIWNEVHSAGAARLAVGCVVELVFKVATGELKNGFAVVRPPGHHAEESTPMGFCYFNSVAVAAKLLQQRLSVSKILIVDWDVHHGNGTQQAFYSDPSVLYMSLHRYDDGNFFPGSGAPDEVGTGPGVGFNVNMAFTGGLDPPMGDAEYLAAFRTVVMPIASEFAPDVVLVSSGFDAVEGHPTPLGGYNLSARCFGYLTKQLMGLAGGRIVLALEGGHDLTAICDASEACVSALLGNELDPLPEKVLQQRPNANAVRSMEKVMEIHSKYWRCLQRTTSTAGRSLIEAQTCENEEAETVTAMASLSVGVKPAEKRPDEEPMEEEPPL
UniProt P61086: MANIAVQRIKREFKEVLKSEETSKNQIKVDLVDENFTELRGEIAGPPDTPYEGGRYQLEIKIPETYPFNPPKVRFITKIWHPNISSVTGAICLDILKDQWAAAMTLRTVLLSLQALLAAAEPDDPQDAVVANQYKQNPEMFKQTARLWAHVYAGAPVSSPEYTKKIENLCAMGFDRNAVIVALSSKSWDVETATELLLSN
UniProt P62633: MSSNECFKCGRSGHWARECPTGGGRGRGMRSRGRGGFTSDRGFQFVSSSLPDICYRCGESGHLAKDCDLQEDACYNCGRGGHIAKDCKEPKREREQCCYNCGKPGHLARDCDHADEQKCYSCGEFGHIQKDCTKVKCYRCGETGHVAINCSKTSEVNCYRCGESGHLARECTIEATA
UniProt P82094: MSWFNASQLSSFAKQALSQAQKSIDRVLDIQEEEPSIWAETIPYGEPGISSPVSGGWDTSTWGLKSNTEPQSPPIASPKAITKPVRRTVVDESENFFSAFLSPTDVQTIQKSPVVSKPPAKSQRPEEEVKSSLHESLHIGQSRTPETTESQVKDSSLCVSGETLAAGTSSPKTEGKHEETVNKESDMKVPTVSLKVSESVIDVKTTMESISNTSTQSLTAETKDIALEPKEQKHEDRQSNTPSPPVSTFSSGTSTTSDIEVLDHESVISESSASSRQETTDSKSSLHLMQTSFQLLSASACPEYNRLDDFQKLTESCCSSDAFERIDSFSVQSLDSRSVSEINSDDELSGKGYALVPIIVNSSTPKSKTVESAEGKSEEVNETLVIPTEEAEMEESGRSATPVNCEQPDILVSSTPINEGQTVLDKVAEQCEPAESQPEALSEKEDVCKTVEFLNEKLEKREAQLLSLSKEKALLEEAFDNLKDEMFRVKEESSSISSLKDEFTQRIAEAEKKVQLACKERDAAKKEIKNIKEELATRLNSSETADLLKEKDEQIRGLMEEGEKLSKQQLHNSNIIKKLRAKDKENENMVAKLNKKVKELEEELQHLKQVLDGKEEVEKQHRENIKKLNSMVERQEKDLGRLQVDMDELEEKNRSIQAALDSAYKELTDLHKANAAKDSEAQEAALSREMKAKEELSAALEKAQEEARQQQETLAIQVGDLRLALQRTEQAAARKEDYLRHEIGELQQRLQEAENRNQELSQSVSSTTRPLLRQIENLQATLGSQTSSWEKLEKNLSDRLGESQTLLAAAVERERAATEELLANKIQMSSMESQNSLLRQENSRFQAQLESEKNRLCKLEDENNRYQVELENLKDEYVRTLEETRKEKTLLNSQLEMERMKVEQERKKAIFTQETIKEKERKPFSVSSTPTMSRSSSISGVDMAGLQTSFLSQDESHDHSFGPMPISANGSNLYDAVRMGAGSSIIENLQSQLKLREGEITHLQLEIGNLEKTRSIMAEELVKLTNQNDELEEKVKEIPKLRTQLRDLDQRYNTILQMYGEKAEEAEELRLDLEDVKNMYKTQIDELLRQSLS
UniProt P60520, whole entry: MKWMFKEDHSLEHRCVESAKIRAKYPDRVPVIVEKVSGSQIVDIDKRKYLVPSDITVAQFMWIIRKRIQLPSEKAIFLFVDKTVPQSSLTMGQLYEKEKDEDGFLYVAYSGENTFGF
UniProt P60842, whole entry: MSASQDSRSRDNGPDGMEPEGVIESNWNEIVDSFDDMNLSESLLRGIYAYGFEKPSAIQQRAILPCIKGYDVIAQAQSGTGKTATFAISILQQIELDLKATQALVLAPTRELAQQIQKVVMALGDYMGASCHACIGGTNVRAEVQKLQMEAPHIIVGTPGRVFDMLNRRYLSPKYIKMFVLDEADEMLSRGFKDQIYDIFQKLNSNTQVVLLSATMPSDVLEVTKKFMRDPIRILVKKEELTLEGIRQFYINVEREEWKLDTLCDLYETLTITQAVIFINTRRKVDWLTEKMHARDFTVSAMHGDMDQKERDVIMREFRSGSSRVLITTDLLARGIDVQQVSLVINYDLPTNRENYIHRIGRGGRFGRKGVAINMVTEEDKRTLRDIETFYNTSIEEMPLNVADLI

This is one part of the list. Most values lie at the level of the controls, where differences are scatter.

Compound in this experiment: Cc1nc(Nc2ncc(C(=O)Nc3c(C)cccc3Cl)s2)cc(N2CCN(CCO)CC2)n1 [dasatinib]
The experiment is described as follows: log2 fold change of tryptic peptide abundance, ligand vs vehicle (limited proteolysis) (log2 ratio); higher = more trypsin-susceptible (destabilized). The note with it: ligand concentration: 5 uM; sample: K562 cleared lysate.

For “UniProt P62857 (peptide sequence: MDTSRVQPIKLAR, peptide start residue: 1)”, the log2 fold change was determined as 0.282.

As for “UniProt P62140 (peptide sequence: ICGDIHGQYTDLLR, peptide start residue: 60)”, the log2 fold change came out at 0.951.

For the target “UniProt P68363 (peptide sequence: EIIDLVLDR, peptide start residue: 113)”, the log2 fold change was -0.0554.

Take “VBP1 (peptide sequence: GEMATGNGR, peptide start residue: 11) (UniProt P61758)”: the log2 fold change worked out at 0.0897.

In the case of “AP2B1 (peptide sequence: AELNNEKKEK, peptide start residue: 20) (UniProt P63010)”, the log2 fold change was determined as 1.25.

Turning to “DCD (peptide sequence: ENAGEDPGLAR, peptide start residue: 43) (UniProt P81605)”, the log2 fold change was -0.487.

As for “PKNOX1 (peptide sequence: IHLLELEKVNELCK, peptide start residue: 127) (UniProt P55347)”, the log2 fold change was determined as 0.298.

Take “NUCB2 (peptide sequence: KKHENHPK, peptide start residue: 212) (UniProt P80303)”: the log2 fold change was -0.757.

For the target “SLC35A2 (peptide sequence: GDLITEPFLPK, peptide start residue: 378) (UniProt P78381)”, the log2 fold change was 0.107.

Consider “UniProt P62310 (peptide sequence: NIPMLFVR, peptide start residue: 81)”, for which the log2 fold change is -0.0616.

As for “MRPS10 (peptide sequence: DLTKPVVTISDEPDILYKR, peptide start residue: 57) (UniProt P82664)”, the log2 fold change came to 0.402.

“UniProt P61923 (peptide sequence: YYDDTYPSVK, peptide start residue: 30)”: the log2 fold change is -0.0594.

Turning to “TMSB4X (peptide sequence: TETQEKNPLPSKETIEQEK, peptide start residue: 21) (UniProt P62328)”, the log2 fold change was determined as 0.0568.

“UniProt P63241 (peptide sequence: EDLRLPEGDLGK, peptide start residue: 110)”: the log2 fold change was determined as 0.071.

As to “UniProt P62913 (peptide sequence: KLCLNICVGESGDR, peptide start residue: 19)”, the log2 fold change was determined as 0.114.

“UniProt P62316 (peptide sequence: VKAFDRHCNMVLENVK, peptide start residue: 56)”: the log2 fold change is -0.661.

For “TPI1 (peptide sequence: TATPQQAQEVHEK, peptide start residue: 176) (UniProt P60174)”, the log2 fold change is -0.18.

As for “RPS21 (peptide sequence: DHASIQMNVAEVDK, peptide start residue: 28) (UniProt P63220)”, the log2 fold change is 0.435.

Regarding “YBX1 (peptide sequence: FPPYYMR, peptide start residue: 193) (UniProt P67809)”, the log2 fold change is -0.264.

Turning to “SKP1 (peptide sequence: TPEEIRK, peptide start residue: 131) (UniProt P63208)”, the log2 fold change came out at 0.0937.

For “MRPS11 (peptide sequence: QKVEQNAAPSHTK, peptide start residue: 47) (UniProt P82912)”, the log2 fold change is 0.0498.

“UniProt P61081 (peptide sequence: SMRGGYIGSTYFERCLK, peptide start residue: 167)”: the log2 fold change is -0.242.

“IGBP1 (peptide sequence: AAPEEFRK, peptide start residue: 288) (UniProt P78318)”: the log2 fold change was 0.0619.

With “PPIA (peptide sequence: FEDENFILK, peptide start residue: 83) (UniProt P62937)”, the log2 fold change was 0.279.

In the case of “PRMT2 (peptide sequence: AGCCGYIPANHVGK, peptide start residue: 73) (UniProt P55345)”, the log2 fold change stood at 0.187.

“EIF5 (peptide sequence: VLTLSDDLER, peptide start residue: 225) (UniProt P55010)”: the log2 fold change came out at 0.217.

Turning to “UniProt P55145 (peptide sequence: QIDLSTVDLK, peptide start residue: 124)”, the log2 fold change came out at 0.213.

For the target “UniProt P61221 (peptide sequence: LNSIKDVEQKK, peptide start residue: 580)”, the log2 fold change came out at 0.222.

For “UniProt P63167 (peptide sequence: DIAAHIKK, peptide start residue: 37)”, the log2 fold change was 0.107.

“UniProt P62841 (peptide sequence: KQHSLLKR, peptide start residue: 52)”: the log2 fold change was -0.177.

For the target “HDAC4 (peptide sequence: QQQEMLAMK, peptide start residue: 114) (UniProt P56524)”, the log2 fold change was -0.385.

Regarding “UniProt P61254 (peptide sequence: YVIYIERVQR, peptide start residue: 78)”, the log2 fold change is -0.328.

For “UniProt P61086 (peptide sequence: DQWAAAMTLR, peptide start residue: 98)”, the log2 fold change is -0.472.

As to “CNBP (peptide sequence: CGESGHLAR, peptide start residue: 161) (UniProt P62633)”, the log2 fold change is -0.0997.

Regarding “TMF1 (peptide sequence: KAIFTQETIKEK, peptide start residue: 908) (UniProt P82094)”, the log2 fold change turned out to be 0.511.

On to “UniProt P60520 (peptide sequence: VSGSQIVDIDKRK, peptide start residue: 36)”, for which the log2 fold change turned out to be 0.243.

Consider “UniProt P62888 (peptide sequence: SGKYVLGYKQTLK, peptide start residue: 24)”, for which the log2 fold change is -0.59.

With “UniProt P60842 (peptide sequence: DQIYDIFQK, peptide start residue: 194)”, the log2 fold change is -0.195.
